According to the supplement of paper PMC3334620:
In all, about 33,000 sequences were measured (“E-score (-0.5 to 0.5)”: median about -8e-05, highest 2% from about 0.23 on). Some of the results follow.

Target: T1, Nrg2 (UniProt P38082)
T1 sequence: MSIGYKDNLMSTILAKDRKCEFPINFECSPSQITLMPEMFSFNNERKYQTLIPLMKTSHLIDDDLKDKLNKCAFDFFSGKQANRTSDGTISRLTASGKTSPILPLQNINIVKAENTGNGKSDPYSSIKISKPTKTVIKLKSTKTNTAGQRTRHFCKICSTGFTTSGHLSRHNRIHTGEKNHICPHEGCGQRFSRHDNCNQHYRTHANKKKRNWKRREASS
Test: PBM E-score (8-mer binding enrichment) (E-score (-0.5 to 0.5)); higher = stronger / more preferred TF binding
Settings: protein concentration: 100 nM; construct: GST-full length
In short: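 Each ungapped eight-base word and its reverse complement, pooled, received an E-score from the Universal PBM Analysis Suite. Underlying scans, normalised with masliner, recorded fluorescent anti-GST bound to GST-tagged yeast transcription factors. These were applied at about 100-200 nM to universal all-10-mer Agilent arrays double-stranded by primer extension.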

Sequence	PBM E-score
CGGTCAAA	0.0235
AGGCTTGA	0.00845
ATCTCAAG	0.238
CGACGTGA	-0.0428
ATAGTTGC	0.19
CAGGTGGC	-0.146
CGACCTCC	-0.0729
TACAGAAA	0.222
CGTAGTCA	-0.095
ACCAGCCG	-0.148
ACTTGAAT	0.0658
GAGGATAC	-0.195
CCAGTTCA	0.00629
AATCATTA	0.0429
CCTCAGTA	-0.0944
GAATATAA	0.12
CTCGGGTC	0.157
AGGAGGCC	-0.305
CGGTAATA	0.0466
GATACTAC	0.13
ATAGCTTC	-0.176
AGTAACCC	0.0575
TTACGAAA	0.0467
AAGCCATT	-0.119
AACTATTG	0.171

Sequence	PBM E-score
CCCAAAGC	-0.151
AGTGACAA	0.0848
CCTCTCCG	-0.294
TCACGACA	-0.0775
ACGACTCG	-0.0701
AGTAGGCA	0.0959
AGATGAGG	-0.0818
GAAACCTC	-0.0382
AGGAGTGC	-0.111
ACAGAAAC	0.227
CGTATCTA	0.0447
CAGGTAAC	-0.131
CGATATCG	0.0284
CCCTCAAC	-0.135
CCATGTAG	0.118
AGCTCTCG	-0.129
ATCTGACA	-0.108
AATGCCCT	-0.11
AAGAAAGA	0.134
ACGGTCGG	0.00627
TGATCGCA	-0.156
GGTGCCGA	0.0518
CTAGAAAC	-0.111
GCAGATCC	0.034
CCACATTC	0.0344

Sequence	PBM E-score
AGGGGGCC	-0.189
CATTAGCA	-0.0698
CTTTCCGC	0.00442
AGGTGACT	-0.0863
TGACCTAA	0.128
CCAGTCGG	-0.166
GATAGACA	-0.0372
ATCCTGTG	-0.11
ATTAGTAC	0.14
AAGTATGG	0.121
AATAATTA	0.286
ATGGGCGG	0.00956
CTAAGATC	0.0543
GCGTCCGA	-0.0847
GGTAGGTA	-0.0984
CCCAATAG	0.00098
AGCGTTTC	-0.195
AGCCTTTG	-0.186
AACGGAAT	0.136
ACAGCCGA	-0.0907
GAATGTAA	0.159
CGCGCTAA	0.259
CGAGCACA	0.155
GCCCGGCC	-0.291
ATTCCAAC	0.0418

Sequence	PBM E-score
AGCCGGAA	0.225
GCCAACCA	-0.122
CGTGCGTA	0.0283
AGATTAGG	-0.055
GGCGGATA	0.0265
AAACATTC	-0.0492
CGCCTTCC	-0.297
CGACGACC	-0.0281
AAGGTTAA	-0.0201
ACGTAGCA	0.0226
CTGTCAGA	0.11
CCTCGACA	-0.0179
CTACAGTA	-0.0466
ATCCGTAG	-0.219
TAAGATGA	0.025
CTGCAATC	0.0966
GACAATAC	0.232
AGAACGGA	-0.0712
AGTCCGAC	-0.138
ATGGAGAA	0.0935
GGAAATAC	7e-05
AGCGTTAC	-0.146
CCCCAGAC	-0.226
ACGCAACG	0.0759
ATATAGAC	-0.0547

Sequence	PBM E-score
CACCGTAA	-0.0346
CACCTCGA	0.256
ACTCAAAA	0.161
AGTCGTTC	-0.219
AGATGGAT	-0.00928
ATTAGAGG	-0.169
CCTGCGCC	-0.00969
ATTCTTAC	0.0813
CCCAGGTC	-0.299
TCACTGAA	0.135
AAAACTCG	0.0385
CATCTCTC	0.148
AAAACTGA	-0.0495
AGTCTGAC	0.0109
GATGGCAC	-0.111
CGCGACCA	0.23
GGTGGGTA	0.0177
ATCCTTCG	-0.0731
CACGATTA	0.0388
CGTAGCGA	0.0115
ACTCGAAT	-0.0643
CAGCTTCA	-0.166
TCAGCGAA	-0.0216
CACACGAG	-0.0946
ATTTTGTA	0.0995

A second format for part of the listing above.
Sequence | PBM E-score
CTGCAATC | 0.0966
GACAATAC | 0.232
AGAACGGA | -0.0712
AGTCCGAC | -0.138
ATGGAGAA | 0.0935
GGAAATAC | 7e-05
AGCGTTAC | -0.146
CCCCAGAC | -0.226
ACGCAACG | 0.0759
ATATAGAC | -0.0547
CACCGTAA | -0.0346
CACCTCGA | 0.256
ACTCAAAA | 0.161
AGTCGTTC | -0.219
AGATGGAT | -0.00928
ATTAGAGG | -0.169
CCTGCGCC | -0.00969
ATTCTTAC | 0.0813
CCCAGGTC | -0.299
TCACTGAA | 0.135
AAAACTCG | 0.0385
CATCTCTC | 0.148
AAAACTGA | -0.0495
AGTCTGAC | 0.0109
GATGGCAC | -0.111
CGCGACCA | 0.23
GGTGGGTA | 0.0177
ATCCTTCG | -0.0731
CACGATTA | 0.0388
CGTAGCGA | 0.0115
ACTCGAAT | -0.0643
CAGCTTCA | -0.166
TCAGCGAA | -0.0216

(list continues)

Sequence	PBM E-score
ATTCTCCG	0.107
AAACACGA	0.0493
AGATTATA	0.0559
CCGCAAGG	0.117
ATTGCGGA	0.119
GAGTCCAC	-0.0518
CTAACGCA	-0.025
AAGACGCT	-0.178
GCGAGGCA	0.148
TATGAACA	0.0271
AAATGGAA	0.0261
ATTTAATA	0.247
GCGCTACC	-0.139
AAGAAGCA	-0.0436
TTATCAAA	0.0866
CTAATCGC	0.14
CGAGAAAA	-0.058
CTCAGACC	0.0297
AGTAATAT	0.137
CAGCCACC	-0.125
GTGAGGTA	-0.165
CAGGGCTC	0.0594
CACAAAAG	0.151
CCTACGAC	-0.0786
CGCTGAGC	0.0528

Sequence	PBM E-score
TCGTAAAA	-0.00421
CCAACCAA	-0.0266
ACACGGCC	-0.0946
AGGCGGTG	-0.143
CAGCCCTC	-0.262
CCTCTGCA	-0.0772
ACTAGCCG	-0.0904
TCATGCCA	0.0156
CTATGGCA	-0.0101
CTCTCCAA	0.0112
CCGTTGAG	-0.141
ATGGCACA	0.011
TCTTTTAA	-0.0015
ACCGTAAG	-0.0598
CCGCGGGA	0.284
ATGGGCTA	0.0965
CCGGAGGA	-0.344
ACTAACTA	0.06
CAAAAGTA	0.0162
AAGTCTCG	-0.168
GGTTTTTA	-0.00507
AGTTGGGC	0.128
